Source: US12516293B2, “Reagents and methods with Wnt agonists and bioactive lipids for generating and expanding cardiomyocytes” (The Board of Trustees of the Leland Stanford Junior …, priority 2018, dated 2026)
For some of these results: For at least one compound, name, drawing or mass did not settle the structure. Some of these results come from one statement about several compounds together.

Legend:
Format in all cases: cell-based, human
hiPSC-CMs = assay: Cell cycle activity in well-differentiated hiPSC-CMs (ki67, pHH3, cell count); settings: S1P/LPA in the presence of trametinib
Description: To address this, well-differentiated hiPSC-CMs were generated (e.g. day 30 or later) using chemically-defined protocols (Burridge et al. 2014; Churko et al. 2013; Sharma et al. 2015) (Movie S1) and treated them with S1P/LPA or CHIR or both (FIG. 18A). The presence of S1P/LPA receptors in these cells was first validated (FIG. 21). Immunofluorescence staining was then performed for ki67, a marker of cell cycle activity, and phospho Histone H3 (pHH3), a mitosis marker, in cardiac troponin T (TnT) positive cells.

ERK1/2 and other kinases = assay: Kinase phosphorylation profiling in day 30 hiPSC-CMs; settings: S1P/LPA (10 μM each) in the presence of trametinib
hiPSCs = assay: 96-well hiPSC-CM differentiation assay; settings: added concurrently with CHIR between days 0-2, two poorly differentiating lines, vs control

Molecule | S1P/LPA-induced upregulation of ki67 (hiPSC-CMs) | S1P/LPA-induced ERK phosphorylation (ERK1/2 and other kinases) | enhancement of hiPSC-CM generation (TnT expression at day 8) (hiPSCs)
CC(=O)Nc1cccc(-n2c(=O)n(C3CC3)c(=O)c3c(Nc4ccc(I)cc4F)n(C)c(=O)c(C)c32)c1 [trametinib] | abolished | abolished | 
lysophosphatidic acid [LPA] |  |  | 2-3 fold
CCCCCCCCCCCCC/C=C/[C@@H](O)[C@@H](N)COP(=O)(O)O [S1P, sphingosine-1-phosphate] |  |  | 2-3 fold
